Results: US20210261642A1, “SOLUBILITY OF GLP-1 PEPTIDE” (Novo Nordisk A/S, priority 2017, published 2021)
This continues a long series; more values of the same kind are listed elsewhere.

Assay: Assay (I): Determination of Solubility (96-well plate, pH 3.0-11.0, organic solvent 0-70% w/w, UV absorption at 280 nm)
Type: physicochemical
Details: MeCN 25.5% w/w, Method 1
Method: Assay (I): Determination of Solubility
96-Well Plate Preparation
96-well plates containing target peptide in a solid form were prepared in one of two ways:
Method 1 (evaporation): Addition of 100 μl stock solution of said peptide at a concentration of 4-6 mg/ml to each well of a 96-well half area plate (150 μl well size). Subsequently the solvent was evaporated by applying a vacuum until the solvent was completely removed.
Method 2 (precipitation): Addition of a certain volume of a stock solution of said peptide containing to each well of a 96-well half area plate followed by the addition of a certain volume of concentrated phosphoric acid to obtain a pH of 4.6 followed by addition of a certain volume of ethanol resulting in a final ethanol concentration of 20% v/v. Subsequently the plate was stored at 4° C. for 1 h and then centrifuged at 4,000 rpm for 20 min. Finally the supernatant was removed. The concentration of the stock solution was chosen in a way that the final amount of peptide after supernatant removal was >0.4 mg per well.
In both cases the stock solution was prepared by adding de-ionized water to a certain amount of powder of said peptide followed by a stepwise addition of small amounts of a concentrated sodium hydroxide solution until said peptide was completely in solution.
To determine solubility of a target peptide at different pH and organic solvent concentrations, two different buffer systems were used in independent experiments to cover the whole range from pH 3.0 to pH 11.0. Buffer system 1 covers pH 3.0-7.5 and buffer system 2 covers pH 7.5-11.0. For each buffer system 96 different solvent compositions were premixed in the following way: • 1. A low pH buffer (adjusted to either pH 3.0 or pH 7.5) and a high pH buffer (adjusted to either pH 7.5 or pH 11.0) were mixed at 8 different ratios to obtain values between pH 3.0 and pH 7.5 or pH 7.5 and pH 11.0, respectively. The total volume after mixing was 300 μl. • 2. 12 different amounts of organic solvent were then added to these buffers to obtain organic solvent (e.g. ethanol) concentrations between 0 and 70% w/w. • 3. Water was then added to obtain a total weight of 1.0 g of solvent in each well.
After preparing the 96 different solvent systems, 100 μl of each system was transferred to the 96-well plate containing the solid form of the target peptide (prepared as described in the section “96-well plate preparation”). The plate was then stored at a given temperature (between 5° C. and 70° C.) for a given time on a rotating shaker set to 400 rpm. At regular time intervals the plate was centrifuged (4,000 rpm for 10 min) and a 10 μl sample was taken from each well. The samples were then analysed by UV absorption at 280 nm for peptide quantification. Peptide concentration results are given as UV absorption at 280 nm of the sample subtracted UV absorption at 280 nm of a well comprising 10 μl water.
The buffers used were as follows: • Buffer system 1 (for the pH range from pH 3.0-7.5)
• Buffer system 2 (for the pH ranae from pH 7.5-11.0)
Solubility of liraglutide was determined using Assay (I) described herein. Liraglutide was prepared using Method 1 (evaporation) or Method 2 (precipitation) as described in subsection “96-well plate preparation”.

With `CCCCCCCCCCCCCCCC(=O)N[C@@H](CCC(=O)NCCCC[C@H](NC(=O)[C@H](C)NC(=O)[C@H](C)NC(=O)[C@H](CCC(N)=O)NC(=O)CNC(=O)[C@H](CCC(=O)O)NC(=O)[C@H](CC(C)C)NC(=O)[C@H](Cc1ccc(O)cc1)NC(=O)[C@H](CO)NC(=O)[C@H](CO)NC(=O)[C@@H](NC(=O)[C@H](CC(=O)O)NC(=O)[C@H](CO)NC(=O)[C@@H](NC(=O)[C@H](Cc1ccccc1)NC(=O)[C@@H](NC(=O)CNC(=O)[C@H](CCC(=O)O)NC(=O)[C@H](C)NC(=O)[C@@H](N)Cc1cnc[nH]1)[C@@H](C)O)[C@@H](C)O)C(C)C)C(=O)N[C@@H](CCC(=O)O)C(=O)N[C@@H](Cc1ccccc1)C(=O)N[C@H](C(=O)N[C@@H](C)C(=O)N[C@@H](Cc1c[nH]c2ccccc12)C(=O)N[C@@H](CC(C)C)C(=O)N[C@H](C(=O)N[C@@H](CCCNC(=N)N)C(=O)NCC(=O)N[C@@H](CCCNC(=N)N)C(=O)NCC(=O)O)C(C)C)[C@@H](C)CC)C(=O)O` [liraglutide, Arg34,Lys26-(N-epsilon-(gamma-L-glutamyl(N-alfa-hexadecanoyl)))-GLP-1(7-37)] the “Peptide concentration after 24 h” value (pH 3.0, 5° C.) was 0.7 mg/mL, the “Peptide concentration after 5 min” value (pH 3.0, 70° C.) was 0.6 mg/mL and the “Peptide concentration after 180 min” value (pH 3.0, 70° C.) was 0.9 mg/mL. For the same compound, the “Peptide concentration after 5 min” value (pH 3.0, RT) was 0.5 mg/mL, the “Peptide concentration after 180 min” value (pH 3.0, RT) was 0.4 mg/mL and the “Peptide concentration after 24 h” value (pH 3.0, RT) was 0.4 mg/mL. The “Peptide concentration after 5 min” value (pH 3.6, 5° C.) was 0.2 mg/mL, the “Peptide concentration after 180 min” value (pH 3.6, 5° C.) was 0.2 mg/mL and the “Peptide concentration after 24 h” value (pH 3.6, 5° C.) was 0.2 mg/mL. The “Peptide concentration after 5 min” value (pH 3.6, 70° C.) was 0.1 mg/mL, the “Peptide concentration after 180 min” value (pH 3.6, 70° C.) was 0.1 mg/mL and the “Peptide concentration after 5 min” value (pH 3.6, RT) was 0.2 mg/mL. For the same compound, the “Peptide concentration after 180 min” value (pH 3.6, RT) was 0.1 mg/mL, the “Peptide concentration after 24 h” value (pH 3.6, RT) was 0.1 mg/mL and the “Peptide concentration after 5 min” value (pH 4.3, 5° C.) was 0.3 mg/mL. The “Peptide concentration after 180 min” value (pH 4.3, 5° C.) was 0.2 mg/mL, the “Peptide concentration after 24 h” value (pH 4.3, 5° C.) was 0.1 mg/mL and the “Peptide concentration after 5 min” value (pH 4.3, 70° C.) was 0.1 mg/mL. The “Peptide concentration after 180 min” value (pH 4.3, 70° C.) was 0.1 mg/mL, the “Peptide concentration after 5 min” value (pH 4.3, RT) was 0.1 mg/mL and the “Peptide concentration after 180 min” value (pH 4.3, RT) was 0.1 mg/mL. For the same compound, the “Peptide concentration after 24 h” value (pH 4.3, RT) was 0.1 mg/mL, the “Peptide concentration after 5 min” value (pH 4.9, 5° C.) was 0.1 mg/mL and the “Peptide concentration after 180 min” value (pH 4.9, 5° C.) was 0.2 mg/mL. The “Peptide concentration after 24 h” value (pH 4.9, 5° C.) was 0.1 mg/mL, the “Peptide concentration after 5 min” value (pH 4.9, 70° C.) was 0.1 mg/mL and the “Peptide concentration after 180 min” value (pH 4.9, 70° C.) was 0.1 mg/mL. The “Peptide concentration after 5 min” value (pH 4.9, RT) was 0.1 mg/mL, the “Peptide concentration after 180 min” value (pH 4.9, RT) was 0.1 mg/mL and the “Peptide concentration after 24 h” value (pH 4.9, RT) was 0.0 mg/mL. For the same compound, the “Peptide concentration after 5 min” value (pH 5.6, 5° C.) was 0.1 mg/mL, the “Peptide concentration after 180 min” value (pH 5.6, 5° C.) was 0.1 mg/mL and the “Peptide concentration after 24 h” value (pH 5.6, 5° C.) was 0.1 mg/mL. The “Peptide concentration after 5 min” value (pH 5.6, 70° C.) was 0.2 mg/mL, the “Peptide concentration after 180 min” value (pH 5.6, 70° C.) was 0.1 mg/mL and the “Peptide concentration after 5 min” value (pH 5.6, RT) was 0.6 mg/mL. The “Peptide concentration after 180 min” value (pH 5.6, RT) was 0.2 mg/mL, the “Peptide concentration after 24 h” value (pH 5.6, RT) was 0.1 mg/mL and the “Peptide concentration after 5 min” value (pH 6.2, 5° C.) was 1.6 mg/mL. The “Peptide concentration after 180 min” value (pH 6.2, 5° C.) was 0.9 mg/mL, the “Peptide concentration after 24 h” value (pH 6.2, 5° C.) was 0.2 mg/mL and the “Peptide concentration after 5 min” value (pH 6.2, 70° C.) was 0.9 mg/mL. The “Peptide concentration after 180 min” value (pH 6.2, 70° C.) was 0.3 mg/mL, the “Peptide concentration after 5 min” value (pH 6.2, RT) was 1.0 mg/mL and the “Peptide concentration after 180 min” value (pH 6.2, RT) was 0.6 mg/mL. The “Peptide concentration after 24 h” value (pH 6.2, RT) was 0.2 mg/mL, the “Peptide concentration after 5 min” value (pH 6.9, 5° C.) was 1.3 mg/mL and the “Peptide concentration after 180 min” value (pH 6.9, 5° C.) was 3.5 mg/mL. For the same compound, the “Peptide concentration after 24 h” value (pH 6.9, 5° C.) was over 4.0 mg/mL.
